Source: article PMC8770127
These are yes or no findings as the source states them, for the method shown. In cells and extracts the contact can be indirect. Some binding calls cover weakened binding; strength is not graded here.

Amino acid sequences for entries named in this document (tags omitted).
UniProt P10275: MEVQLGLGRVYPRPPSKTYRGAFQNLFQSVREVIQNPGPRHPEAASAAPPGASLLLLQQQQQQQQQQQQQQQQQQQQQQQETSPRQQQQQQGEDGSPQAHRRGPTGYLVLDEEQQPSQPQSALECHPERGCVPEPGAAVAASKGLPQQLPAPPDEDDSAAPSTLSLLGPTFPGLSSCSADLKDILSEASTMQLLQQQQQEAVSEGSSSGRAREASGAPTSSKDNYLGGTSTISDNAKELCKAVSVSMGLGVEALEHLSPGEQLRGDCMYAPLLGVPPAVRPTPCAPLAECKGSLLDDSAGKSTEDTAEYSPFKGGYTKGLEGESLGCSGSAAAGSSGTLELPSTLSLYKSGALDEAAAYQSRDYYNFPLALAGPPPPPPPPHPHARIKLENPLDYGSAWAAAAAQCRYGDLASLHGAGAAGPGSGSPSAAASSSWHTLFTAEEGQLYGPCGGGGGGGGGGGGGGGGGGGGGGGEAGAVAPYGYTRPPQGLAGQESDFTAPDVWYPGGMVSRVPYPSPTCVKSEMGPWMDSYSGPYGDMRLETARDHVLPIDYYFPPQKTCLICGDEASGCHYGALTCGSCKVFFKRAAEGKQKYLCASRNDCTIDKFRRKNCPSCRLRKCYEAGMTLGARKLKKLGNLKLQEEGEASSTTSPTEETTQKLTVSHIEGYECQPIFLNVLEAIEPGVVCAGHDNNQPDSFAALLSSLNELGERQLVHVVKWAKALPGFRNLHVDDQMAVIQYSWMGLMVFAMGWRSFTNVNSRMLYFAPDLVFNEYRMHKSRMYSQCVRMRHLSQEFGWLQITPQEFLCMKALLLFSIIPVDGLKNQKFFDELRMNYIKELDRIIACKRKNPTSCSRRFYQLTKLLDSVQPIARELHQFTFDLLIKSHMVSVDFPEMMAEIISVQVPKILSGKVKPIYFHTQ
UniProt Q92922: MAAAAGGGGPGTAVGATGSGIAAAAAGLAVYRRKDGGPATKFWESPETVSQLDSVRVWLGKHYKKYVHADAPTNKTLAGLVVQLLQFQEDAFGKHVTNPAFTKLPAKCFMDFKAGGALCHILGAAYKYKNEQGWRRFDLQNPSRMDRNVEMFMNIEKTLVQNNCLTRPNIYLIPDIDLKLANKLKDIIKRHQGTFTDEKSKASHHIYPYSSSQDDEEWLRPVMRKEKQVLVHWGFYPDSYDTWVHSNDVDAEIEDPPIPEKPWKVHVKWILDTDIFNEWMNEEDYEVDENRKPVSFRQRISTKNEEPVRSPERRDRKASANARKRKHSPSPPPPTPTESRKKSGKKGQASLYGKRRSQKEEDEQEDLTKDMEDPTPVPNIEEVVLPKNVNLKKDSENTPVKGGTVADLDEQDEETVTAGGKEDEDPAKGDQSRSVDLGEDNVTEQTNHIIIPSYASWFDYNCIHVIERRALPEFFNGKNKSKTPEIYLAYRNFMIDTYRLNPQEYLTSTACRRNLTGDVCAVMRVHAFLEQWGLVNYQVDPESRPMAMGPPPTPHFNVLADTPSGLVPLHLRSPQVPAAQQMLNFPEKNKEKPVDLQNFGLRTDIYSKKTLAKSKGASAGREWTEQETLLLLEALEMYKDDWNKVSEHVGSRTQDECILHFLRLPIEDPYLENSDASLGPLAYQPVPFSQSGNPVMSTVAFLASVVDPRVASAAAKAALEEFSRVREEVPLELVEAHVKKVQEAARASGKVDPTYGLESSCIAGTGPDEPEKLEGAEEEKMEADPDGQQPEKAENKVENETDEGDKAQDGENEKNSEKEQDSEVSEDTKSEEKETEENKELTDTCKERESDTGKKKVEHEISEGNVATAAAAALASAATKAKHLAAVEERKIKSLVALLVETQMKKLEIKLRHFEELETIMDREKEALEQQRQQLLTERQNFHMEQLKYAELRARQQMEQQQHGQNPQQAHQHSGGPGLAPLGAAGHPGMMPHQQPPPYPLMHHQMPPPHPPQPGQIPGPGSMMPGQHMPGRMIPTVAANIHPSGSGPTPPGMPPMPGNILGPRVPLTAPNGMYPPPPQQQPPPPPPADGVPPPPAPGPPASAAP

How the values were obtained:
[1] = target: Androgen receptor (human (endogenous in LNCaP and VCaP)) (UniProt P10275); assay: co-IP; reciprocal nuclear co-IP with AR, FOXA1, ERG or SMARCC1 antibodies, 600 ug nuclear extract of VCaP and LNCaP cells after DHT stimulation (10 nM, 3h), immunoblot
[2] = target: T1, Forkhead box A1 (human (endogenous in LNCaP and VCaP)) (UniProt P55317); assay: as above
T1 sequence: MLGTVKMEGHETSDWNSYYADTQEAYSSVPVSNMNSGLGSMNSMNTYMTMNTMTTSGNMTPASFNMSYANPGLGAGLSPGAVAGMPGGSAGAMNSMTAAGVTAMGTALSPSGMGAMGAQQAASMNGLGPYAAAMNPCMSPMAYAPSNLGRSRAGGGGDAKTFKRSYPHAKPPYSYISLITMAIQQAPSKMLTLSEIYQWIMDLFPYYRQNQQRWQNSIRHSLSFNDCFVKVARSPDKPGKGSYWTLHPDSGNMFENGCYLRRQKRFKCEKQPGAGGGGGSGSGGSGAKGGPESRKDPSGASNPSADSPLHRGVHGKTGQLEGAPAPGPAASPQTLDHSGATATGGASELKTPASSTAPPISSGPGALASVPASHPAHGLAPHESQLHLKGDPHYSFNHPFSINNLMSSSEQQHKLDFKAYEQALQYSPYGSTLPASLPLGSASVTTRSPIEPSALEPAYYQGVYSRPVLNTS

- binding [1]: binds
- binding [2]: binds
Substance: SMARCC1 (from UniProt Q92922 1-1105)
